The other results are listed elsewhere or left out. For some assays here: Construct or isoform of the protein are uncertain.
Assays:
Test in all cases: protein microarray (ProtoArray v5.0), streptavidin-Alexa Fluor 647
Conditions in all cases: 3'-biotin; 20 mM Tris (pH 7.5), 5 mM MgCl2, 100 mM KCl, 0.1% Tween-20, A/T-rich and random oligonucleotide blockers; temperature not stated; high values mean tight binding
C14orf159 (human) = system: C14orf159 (human)
C14orf24 (human) = system: C14orf24 (human)
C14orf32 (human) = system: C14orf32 (human)
C14orf45 (human) = system: C14orf45 (human)
C15orf26 (human) = system: C15orf26 (human)
C15orf38 (human) = system: C15orf38 (human)
C15orf41 (human) = system: C15orf41 (human)
C15orf43 (human) = system: C15orf43 (human)
C15orf44 (human) = system: C15orf44 (human)
C16orf13 (human) = system: C16orf13 (human)
C16orf30 (human) = system: C16orf30 (human)
C16orf58 (human) = system: C16orf58 (human)
C16orf67 = target: T1, C16orf67 (UniProt Q96NS8)
T1 sequence: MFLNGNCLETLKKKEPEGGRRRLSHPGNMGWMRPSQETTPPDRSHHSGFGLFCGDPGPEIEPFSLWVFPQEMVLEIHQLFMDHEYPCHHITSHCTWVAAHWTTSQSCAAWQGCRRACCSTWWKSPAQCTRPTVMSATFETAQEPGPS

C16orf74 (human) = system: C16orf74 (human)
C17orf42 (human) = system: C17orf42 (human)
C17orf46 (human) = system: C17orf46 (human)
C17orf48 (human) = system: C17orf48 (human)
C17orf49 (human) = system: C17orf49 (human)
C17orf56 (human) = system: C17orf56 (human)
C18orf10 (human) = system: C18orf10 (human)

Question: What does the source list for “GGGAGGCTGAGGCAGG [G4-1 biotinylated (PQS2)]”?
Answer: binding signal (C14orf159 (human)): -0.321 z-score; binding signal (C14orf24 (human)): -0.337 z-score; binding signal (C14orf32 (human)): -0.328 z-score; binding signal (C14orf45 (human)): -0.344 z-score; binding signal (C15orf26 (human)): -0.332 z-score; binding signal (C15orf38 (human)): -0.341 z-score; binding signal (C15orf41 (human)): -0.343 z-score; binding signal (C15orf43 (human)): -0.312 z-score; binding signal (C15orf44 (human)): -0.309 z-score; binding signal (C16orf13 (human)): -0.339 z-score; binding signal (C16orf30 (human)): -0.344 z-score; binding signal (C16orf58 (human)): -0.288 z-score; binding signal (C16orf67): -0.312 z-score; binding signal (C16orf74 (human)): -0.344 z-score; binding signal (C17orf42 (human)): -0.271 z-score; binding signal (C17orf46 (human)): -0.316 z-score; binding signal (C17orf48 (human)): -0.289 z-score; binding signal (C17orf49 (human)): -0.293 z-score; binding signal (C17orf56 (human)): -0.344 z-score; binding signal (C18orf10 (human)): -0.318 z-score

Source: article PMC5996148
